{"source": "PubChem BioAssay AID1159578 (Peter MacCallum Cancer Centre, 2015)", "test": "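siRNA pools altering how lymphatic endothelial cells close a scratch wound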 (primary screen)", "cells": "human lymphatic endothelial cells", "reagents": "siRNA pool against human genes, 40 nM", "timing": "48 h after transfection", "read-out": "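Cells stained with dye and imaged after a scratch; covered wound area and nuclei counted, duplicates averaged, migration set against mock wells and turned into a robust z-score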", "direction": "migration robust z-score: higher = faster migration into the scratch; nuclei per well: higher = more cells in the well", "call rule": "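Migration changed when robust z exceeds 2 or falls below -2 and mean nuclei number is at least 3300; otherwise not called changed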", "meaning of the calls": "active = migration changed; inactive = no migration change, or too few cells", "note": "The whole screen tested about 18,000 reagents; shown is a random part of them. Of all reagents, about 1,030 (5.7%) are marked active. 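Inactive calls also include pools with fewer than 3300 nuclei, whose migration was not assessed.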 Raw values vary from plate to plate and are shown uncorrected. Entries without a mark were called inactive. Not all columns of the deposit are shown. No sequences are given here."}
{"Gene": "OR5A2 (olfactory receptor family 5 subfamily A member 2)", "migration robust z-score": 1.18, "nuclei per well, duplicate mean": 6115}
{"Gene": "ACP3 (acid phosphatase 3)", "migration robust z-score": 0.57, "nuclei per well, duplicate mean": 5706}
{"Gene": "CLTRN (collectrin, amino acid transport regulator)", "migration robust z-score": -1.48, "nuclei per well, duplicate mean": 4528}
{"Gene": "ZNF585B (zinc finger protein 585B)", "migration robust z-score": -0.3, "nuclei per well, duplicate mean": 4466}
{"Gene": "ZC3H18-DT (ZC3H18 divergent transcript)", "migration robust z-score": 0.48, "nuclei per well, duplicate mean": 4859}
{"Gene": "SLC38A6", "migration robust z-score": 0.6, "nuclei per well, duplicate mean": 4944}
{"Gene": "SLC60A1", "migration robust z-score": 0.45, "nuclei per well, duplicate mean": 5088}
{"Gene": "PRR5-ARHGAP8 (PRR5-ARHGAP8 readthrough)", "migration robust z-score": -0.78, "nuclei per well, duplicate mean": 4928}
{"Gene": "KCNJ8 (potassium inwardly rectifying channel subfamily J member 8)", "migration robust z-score": -0.44, "nuclei per well, duplicate mean": 5108}
{"Gene": "SHISA6 (shisa family member 6)", "migration robust z-score": 0.27, "nuclei per well, duplicate mean": 4870}
{"Gene": "GPT (glutamic--pyruvic transaminase)", "migration robust z-score": 0.13, "nuclei per well, duplicate mean": 4900}

Continued (2 carried over from the part before).
{"Gene": "SHISA6 (shisa family member 6)", "migration robust z-score": 0.27, "nuclei per well, duplicate mean": 4870}
{"Gene": "GPT (glutamic--pyruvic transaminase)", "migration robust z-score": 0.13, "nuclei per well, duplicate mean": 4900}
{"Gene": "DRC12 (dynein regulatory complex subunit 12 homolog)", "migration robust z-score": 1.36, "nuclei per well, duplicate mean": 5054}
{"Gene": "PRR15 (proline rich 15)", "migration robust z-score": 0.02, "nuclei per well, duplicate mean": 6048}
{"Gene": "CXCL14 (C-X-C motif chemokine ligand 14)", "migration robust z-score": 0.5, "nuclei per well, duplicate mean": 6180}
{"Gene": "AMY2A (amylase alpha 2A)", "migration robust z-score": -0.7, "nuclei per well, duplicate mean": 5754}
{"Gene": "SMPD1 (sphingomyelin phosphodiesterase 1)", "migration robust z-score": -1.14, "nuclei per well, duplicate mean": 6096}
{"Gene": "COQ8B (coenzyme Q8B)", "migration robust z-score": -0.73, "nuclei per well, duplicate mean": 5094}
{"Gene": "LIN7B (lin-7 cell polarity scaffold B)", "migration robust z-score": 0.4, "nuclei per well, duplicate mean": 5598}
{"Gene": "CCR9 (C-C motif chemokine receptor 9)", "migration robust z-score": 1.69, "nuclei per well, duplicate mean": 4952}
{"Gene": "PPP6R2 (protein phosphatase 6 regulatory subunit 2)", "migration robust z-score": -0.76, "nuclei per well, duplicate mean": 5616}
{"Gene": "NPC1L1 (NPC1 like intracellular cholesterol transporter 1)", "migration robust z-score": -0.63, "nuclei per well, duplicate mean": 5005}
